Changes are numbered by the printed parent chain. These are yes or no findings as the source states them, for the method shown. Some entries that bind do so weakly or less than the wild type.
B1: TY24557 (antibody, V domains shown)
VH: EVQLVESGGGLVKPGGSLRLSCAASGFTFSTYAMNWVRQAPGKGLEWVSRIRSKYNNYATYYADSVKDRFTISRDDSKNTLYLQINSLRAEDTAVYYCVRHGNFGTSYVSWFAYWGQGTLVTVSS
VL: EAVVTQEPSLTVSPGGTVTLTCGSSTGAVTTSNYPNWVQQKPGQAPRGLIGGTNKRAPGTPARFSGSLLGGKAALTLSGAQPEDEAEYYCALWYSDLWVFGGGTKLTVL
B2: TY24569 (antibody, V domains shown)
VH: B1 VH
VL: B1 VL with G23R, P35A, N54K, K55F, T60V
B3: TY24566 (antibody, V domains shown)
VH: B1 VH with K13Q
VL: B1 VL with G23R, P35A, N54K, K55F, T60V
B4: TY24742 (antibody, V domains shown)
VH: B1 VH with K13Q, M34I, D64E
VL: B1 VL
B5: TY24757 (antibody, V domains shown)
VH: B1 VH with K13Q, M34I, D64E
VL: B1 VL with E1Q, P35A, D96T

Sequences of proteins named here, by UniProt entry; tags and fusion partners are left off. Residues count along the entry.
UniProt P07766, residues 23-207: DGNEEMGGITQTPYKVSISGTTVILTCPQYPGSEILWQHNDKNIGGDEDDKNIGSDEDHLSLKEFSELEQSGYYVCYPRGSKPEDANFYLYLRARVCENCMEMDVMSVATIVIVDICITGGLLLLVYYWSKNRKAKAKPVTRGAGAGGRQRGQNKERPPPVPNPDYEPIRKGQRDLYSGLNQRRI

These binders were tested against human CD3 on cells (Jurkat cells, human T cells) (human) (UniProt P07766) (assay: flow cytometry on Jurkat cells, APC anti-human IgG secondary antibody).

Row | Binder | binding
1 | B1 | binds
2 | B2 | binds
3 | B3 | binds
4 | B4 | binds
5 | B5 | binds
